No constants are given. Whether binding was seen depends on the method and setting. Binding seen in cells or lysates may run through a third protein. These calls come from enrichment with a bait or labelling near it, and not all partners need be listed. No binding means not detected with the bait. For some assays here: Tags and fused reporters may be left off the sequences shown. One block for each molecule: values may come before it.
Assays:
Assay in all cases: proximity labelling; split-APEX: optimal AP/EX combination of SRSF1 with a helicase, TNPO3 or SRRM2 in HEK293T cells; biotinylated proteins recovered on Neutravidin resin, MS/MS; three experiments, proteins found in at least two replicates listed, ranked by total spectral count
[1] = biological target: SRSF1 fused to the AP or the EX fragment of APEX2 (split-APEX fusion) (UniProt Q07955)
[2] = biological target: SRRM2 fused to the AP or the EX fragment of APEX2 (human) (UniProt Q9UQ35)
[3] = biological target: DDX23 fused to the AP or the EX fragment of APEX2 (UniProt Q9BUQ8)

Amino acid sequences for entries named in this document (tags omitted).
UniProt Q07955: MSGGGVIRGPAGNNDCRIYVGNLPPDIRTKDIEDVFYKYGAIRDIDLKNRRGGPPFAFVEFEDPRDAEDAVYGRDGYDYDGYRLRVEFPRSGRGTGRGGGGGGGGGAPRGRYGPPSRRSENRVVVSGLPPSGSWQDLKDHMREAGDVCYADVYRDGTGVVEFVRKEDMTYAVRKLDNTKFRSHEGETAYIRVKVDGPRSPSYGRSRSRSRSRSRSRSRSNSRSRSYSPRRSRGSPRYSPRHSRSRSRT
UniProt Q9UQ35: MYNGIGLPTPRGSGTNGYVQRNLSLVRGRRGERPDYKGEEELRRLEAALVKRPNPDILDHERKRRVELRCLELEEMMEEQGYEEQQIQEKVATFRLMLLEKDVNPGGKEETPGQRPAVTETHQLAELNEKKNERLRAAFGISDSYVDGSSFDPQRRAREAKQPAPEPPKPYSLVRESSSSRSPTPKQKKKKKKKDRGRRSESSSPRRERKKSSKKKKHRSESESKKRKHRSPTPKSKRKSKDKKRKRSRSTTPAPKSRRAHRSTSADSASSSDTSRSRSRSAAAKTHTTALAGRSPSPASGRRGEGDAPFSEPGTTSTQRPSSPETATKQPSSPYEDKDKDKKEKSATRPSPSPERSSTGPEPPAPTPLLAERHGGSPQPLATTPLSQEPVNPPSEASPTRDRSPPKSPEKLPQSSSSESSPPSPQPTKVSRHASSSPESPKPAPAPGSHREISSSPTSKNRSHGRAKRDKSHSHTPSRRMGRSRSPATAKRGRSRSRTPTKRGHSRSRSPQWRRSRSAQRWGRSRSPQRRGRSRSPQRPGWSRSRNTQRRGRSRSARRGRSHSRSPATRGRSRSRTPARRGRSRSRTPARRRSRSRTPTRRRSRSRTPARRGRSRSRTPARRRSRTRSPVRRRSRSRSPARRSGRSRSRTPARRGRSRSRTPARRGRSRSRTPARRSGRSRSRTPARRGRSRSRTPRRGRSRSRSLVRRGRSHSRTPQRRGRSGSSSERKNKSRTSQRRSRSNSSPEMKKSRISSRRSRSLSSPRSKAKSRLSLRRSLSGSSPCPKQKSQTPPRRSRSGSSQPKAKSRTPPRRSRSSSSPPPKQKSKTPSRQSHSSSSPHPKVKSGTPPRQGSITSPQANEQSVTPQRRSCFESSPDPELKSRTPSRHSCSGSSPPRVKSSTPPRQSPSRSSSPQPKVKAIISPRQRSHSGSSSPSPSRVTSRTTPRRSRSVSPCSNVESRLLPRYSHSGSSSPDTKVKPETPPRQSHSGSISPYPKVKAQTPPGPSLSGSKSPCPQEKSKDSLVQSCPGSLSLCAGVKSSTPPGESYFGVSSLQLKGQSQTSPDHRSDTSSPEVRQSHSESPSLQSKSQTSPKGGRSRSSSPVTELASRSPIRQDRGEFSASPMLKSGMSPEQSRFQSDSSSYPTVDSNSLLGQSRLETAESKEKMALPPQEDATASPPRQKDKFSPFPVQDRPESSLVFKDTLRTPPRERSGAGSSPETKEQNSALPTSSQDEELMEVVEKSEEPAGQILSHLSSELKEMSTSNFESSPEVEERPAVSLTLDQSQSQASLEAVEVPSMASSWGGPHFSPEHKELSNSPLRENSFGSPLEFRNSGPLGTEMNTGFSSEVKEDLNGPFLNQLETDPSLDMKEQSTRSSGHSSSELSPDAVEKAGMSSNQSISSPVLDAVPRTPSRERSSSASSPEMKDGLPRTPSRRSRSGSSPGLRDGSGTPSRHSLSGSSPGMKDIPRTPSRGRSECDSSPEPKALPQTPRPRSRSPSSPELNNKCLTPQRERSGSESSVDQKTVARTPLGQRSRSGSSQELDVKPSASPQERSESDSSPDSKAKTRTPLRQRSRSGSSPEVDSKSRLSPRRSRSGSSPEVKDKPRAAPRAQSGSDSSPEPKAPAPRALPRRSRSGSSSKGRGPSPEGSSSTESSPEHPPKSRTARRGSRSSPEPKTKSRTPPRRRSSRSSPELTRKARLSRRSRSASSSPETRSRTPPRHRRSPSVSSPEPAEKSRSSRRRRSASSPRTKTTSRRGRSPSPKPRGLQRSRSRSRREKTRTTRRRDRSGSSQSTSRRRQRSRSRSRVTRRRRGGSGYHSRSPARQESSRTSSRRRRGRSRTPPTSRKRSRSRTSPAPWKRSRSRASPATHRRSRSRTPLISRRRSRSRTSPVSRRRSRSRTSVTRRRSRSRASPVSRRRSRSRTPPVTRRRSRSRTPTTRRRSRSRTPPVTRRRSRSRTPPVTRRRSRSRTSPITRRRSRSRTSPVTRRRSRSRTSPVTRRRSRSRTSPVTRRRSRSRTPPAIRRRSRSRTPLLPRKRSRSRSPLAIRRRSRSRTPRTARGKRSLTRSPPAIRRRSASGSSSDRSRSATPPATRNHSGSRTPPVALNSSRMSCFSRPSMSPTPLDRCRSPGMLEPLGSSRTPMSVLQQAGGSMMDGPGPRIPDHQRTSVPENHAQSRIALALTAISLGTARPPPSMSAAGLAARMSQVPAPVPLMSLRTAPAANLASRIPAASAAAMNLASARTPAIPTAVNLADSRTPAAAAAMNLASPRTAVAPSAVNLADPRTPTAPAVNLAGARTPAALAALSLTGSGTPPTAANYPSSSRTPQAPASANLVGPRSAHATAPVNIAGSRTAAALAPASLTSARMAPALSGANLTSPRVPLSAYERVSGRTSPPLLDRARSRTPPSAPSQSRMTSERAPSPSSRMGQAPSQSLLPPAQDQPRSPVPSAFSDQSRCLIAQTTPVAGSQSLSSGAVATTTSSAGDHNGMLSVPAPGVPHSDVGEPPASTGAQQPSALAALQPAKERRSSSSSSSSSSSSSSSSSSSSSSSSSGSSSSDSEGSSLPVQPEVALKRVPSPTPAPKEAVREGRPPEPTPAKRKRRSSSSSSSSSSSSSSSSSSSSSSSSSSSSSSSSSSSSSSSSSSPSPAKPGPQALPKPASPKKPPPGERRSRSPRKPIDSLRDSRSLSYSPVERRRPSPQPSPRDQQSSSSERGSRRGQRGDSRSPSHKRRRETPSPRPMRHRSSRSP
UniProt Q9BUQ8: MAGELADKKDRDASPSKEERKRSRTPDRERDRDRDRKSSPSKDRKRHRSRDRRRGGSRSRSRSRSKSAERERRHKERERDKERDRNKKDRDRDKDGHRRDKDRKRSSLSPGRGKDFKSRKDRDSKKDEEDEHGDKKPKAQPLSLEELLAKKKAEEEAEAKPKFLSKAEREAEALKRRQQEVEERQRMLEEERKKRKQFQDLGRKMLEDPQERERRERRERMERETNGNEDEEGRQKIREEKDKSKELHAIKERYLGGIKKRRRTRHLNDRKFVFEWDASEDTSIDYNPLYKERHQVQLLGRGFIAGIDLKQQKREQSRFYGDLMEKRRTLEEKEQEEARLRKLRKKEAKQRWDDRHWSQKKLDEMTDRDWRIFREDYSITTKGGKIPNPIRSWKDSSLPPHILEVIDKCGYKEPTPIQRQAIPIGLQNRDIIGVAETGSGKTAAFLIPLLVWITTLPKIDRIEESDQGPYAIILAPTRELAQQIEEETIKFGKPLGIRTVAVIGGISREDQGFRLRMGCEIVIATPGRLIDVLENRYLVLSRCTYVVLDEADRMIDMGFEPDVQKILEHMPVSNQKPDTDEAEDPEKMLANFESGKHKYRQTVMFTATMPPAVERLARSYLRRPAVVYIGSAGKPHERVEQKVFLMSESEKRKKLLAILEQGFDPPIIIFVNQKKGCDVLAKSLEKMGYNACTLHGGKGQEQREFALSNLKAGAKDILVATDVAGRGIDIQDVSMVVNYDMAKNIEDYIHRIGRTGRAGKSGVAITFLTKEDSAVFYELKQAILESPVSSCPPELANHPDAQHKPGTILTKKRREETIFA
UniProt P18583: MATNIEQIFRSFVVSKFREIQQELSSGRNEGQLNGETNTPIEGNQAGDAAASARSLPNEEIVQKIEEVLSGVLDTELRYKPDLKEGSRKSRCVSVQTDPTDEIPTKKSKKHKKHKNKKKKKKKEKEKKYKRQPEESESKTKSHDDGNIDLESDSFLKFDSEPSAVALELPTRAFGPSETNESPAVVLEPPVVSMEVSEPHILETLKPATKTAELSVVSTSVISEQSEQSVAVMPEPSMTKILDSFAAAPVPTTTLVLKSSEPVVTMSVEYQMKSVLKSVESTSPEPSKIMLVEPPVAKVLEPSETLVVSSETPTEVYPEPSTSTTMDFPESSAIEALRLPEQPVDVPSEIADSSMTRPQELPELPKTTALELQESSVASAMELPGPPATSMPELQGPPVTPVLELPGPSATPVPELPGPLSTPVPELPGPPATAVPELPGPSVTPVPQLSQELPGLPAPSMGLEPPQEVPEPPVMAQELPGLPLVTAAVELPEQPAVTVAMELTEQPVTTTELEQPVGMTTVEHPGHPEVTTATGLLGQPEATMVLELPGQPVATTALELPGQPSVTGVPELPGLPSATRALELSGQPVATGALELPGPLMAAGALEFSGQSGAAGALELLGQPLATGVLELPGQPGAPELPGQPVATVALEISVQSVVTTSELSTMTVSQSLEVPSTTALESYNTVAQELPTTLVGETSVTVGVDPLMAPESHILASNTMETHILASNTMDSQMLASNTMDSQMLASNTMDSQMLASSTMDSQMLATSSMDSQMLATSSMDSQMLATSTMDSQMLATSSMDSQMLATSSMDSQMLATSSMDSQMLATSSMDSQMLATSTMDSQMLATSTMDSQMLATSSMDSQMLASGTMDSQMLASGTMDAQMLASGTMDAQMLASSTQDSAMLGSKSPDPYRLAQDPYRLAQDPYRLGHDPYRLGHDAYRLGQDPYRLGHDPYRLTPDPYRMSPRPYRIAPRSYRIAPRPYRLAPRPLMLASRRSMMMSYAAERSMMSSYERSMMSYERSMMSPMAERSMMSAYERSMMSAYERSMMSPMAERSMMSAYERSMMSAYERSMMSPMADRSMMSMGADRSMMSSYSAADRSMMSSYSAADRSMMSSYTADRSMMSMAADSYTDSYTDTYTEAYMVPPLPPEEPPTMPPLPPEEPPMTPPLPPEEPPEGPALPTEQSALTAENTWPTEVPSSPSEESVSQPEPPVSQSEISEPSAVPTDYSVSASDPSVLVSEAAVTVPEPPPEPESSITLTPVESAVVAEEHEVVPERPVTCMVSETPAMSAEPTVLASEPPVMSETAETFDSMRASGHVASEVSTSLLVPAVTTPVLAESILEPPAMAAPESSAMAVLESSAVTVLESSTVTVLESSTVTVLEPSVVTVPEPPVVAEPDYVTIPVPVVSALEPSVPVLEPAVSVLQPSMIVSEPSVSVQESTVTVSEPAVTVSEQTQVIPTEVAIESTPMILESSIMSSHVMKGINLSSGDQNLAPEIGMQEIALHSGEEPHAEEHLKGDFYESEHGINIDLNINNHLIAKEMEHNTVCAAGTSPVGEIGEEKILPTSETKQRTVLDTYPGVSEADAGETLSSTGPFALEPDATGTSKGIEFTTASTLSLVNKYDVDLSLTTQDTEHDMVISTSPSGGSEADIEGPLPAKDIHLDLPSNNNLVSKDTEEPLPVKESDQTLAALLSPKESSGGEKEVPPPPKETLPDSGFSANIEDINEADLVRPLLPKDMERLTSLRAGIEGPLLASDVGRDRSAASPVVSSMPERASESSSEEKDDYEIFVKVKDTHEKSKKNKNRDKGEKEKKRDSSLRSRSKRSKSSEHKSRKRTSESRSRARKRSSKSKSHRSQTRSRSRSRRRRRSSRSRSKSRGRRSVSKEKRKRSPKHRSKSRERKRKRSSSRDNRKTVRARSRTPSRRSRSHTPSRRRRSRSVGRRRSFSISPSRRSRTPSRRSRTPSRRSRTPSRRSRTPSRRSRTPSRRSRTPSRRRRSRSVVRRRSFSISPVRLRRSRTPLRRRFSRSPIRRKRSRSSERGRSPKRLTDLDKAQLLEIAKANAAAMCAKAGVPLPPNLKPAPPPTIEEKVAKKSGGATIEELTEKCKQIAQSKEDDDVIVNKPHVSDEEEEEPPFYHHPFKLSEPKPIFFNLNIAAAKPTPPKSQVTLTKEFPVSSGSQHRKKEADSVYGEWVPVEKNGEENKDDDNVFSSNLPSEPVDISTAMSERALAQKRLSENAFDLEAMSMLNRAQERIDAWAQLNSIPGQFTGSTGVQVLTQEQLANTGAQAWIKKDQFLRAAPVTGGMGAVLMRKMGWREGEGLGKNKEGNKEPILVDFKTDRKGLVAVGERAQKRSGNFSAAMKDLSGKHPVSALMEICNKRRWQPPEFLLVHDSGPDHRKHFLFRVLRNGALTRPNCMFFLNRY

Molecule: DDX23 fused to the AP or the EX fragment of APEX2 (from UniProt Q9BUQ8 1-820)
binding [1]: binds

B4: DDX46 fused to the AP or the EX fragment of APEX2 (protein, UniProt Q7L014 1-1031)
chain: MGRESRHYRKRSASRGRSGSRSRSRSPSDKRSKRGDDRRSRSRDRDRRRERSRSRDKRRSRSRDRKRLRRSRSRERDRSRERRRSRSRDRRRSRSRSRGRRSRSSSPGNKSKKTENRSRSKEKTDGGESSKEKKKDKDDKEDEKEKDAGNFDQNKLEEEMRKRKERVEKWREEQRKKAMENIGELKKEIEEMKQGKKWSLEDDDDDEDDPAEAEKEGNEMEGEELDPLDAYMEEVKEEVKKFNMRSVKGGGGNEKKSGPTVTKVVTVVTTKKAVVDSDKKKGELMENDQDAMEYSSEEEEVDLQTALTGYQTKQRKLLEPVDHGKIEYEPFRKNFYVEVPELAKMSQEEVNVFRLEMEGITVKGKGCPKPIKSWVQCGISMKILNSLKKHGYEKPTPIQTQAIPAIMSGRDLIGIAKTGSGKTIAFLLPMFRHIMDQRSLEEGEGPIAVIMTPTRELALQITKECKKFSKTLGLRVVCVYGGTGISEQIAELKRGAEIIVCTPGRMIDMLAANSGRVTNLRRVTYVVLDEADRMFDMGFEPQVMRIVDNVRPDRQTVMFSATFPRAMEALARRILSKPIEVQVGGRSVVCSDVEQQVIVIEEEKKFLKLLELLGHYQESGSVIIFVDKQEHADGLLKDLMRASYPCMSLHGGIDQYDRDSIINDFKNGTCKLLVATSVAARGLDVKHLILVVNYSCPNHYEDYVHRAGRTGRAGNKGYAYTFITEDQARYAGDIIKALELSGTAVPPDLEKLWSDFKDQQKAEGKIIKKSSGFSGKGFKFDETEQALANERKKLQKAALGLQDSDDEDAAVDIDEQIESMFNSKKRVKDMAAPGTSSVPAPTAGNAEKLEIAKRLALRINAQKNLGIESQDVMQQATNAILRGGTILAPTVSAKTIAEQLAEKINAKLNYVPLEKQEEERQDGGQNESFKRYEEELEINDFPQTARWKVTSKEALQRISEYSEAAITIRGTYFPPGKEPKEGERKIYLAIESANELAVQKAKAEITRLIKEELIRLQNSYQPTNKGRYKVL
binding [1]: binds

B5: DDX46, endogenous (protein, UniProt Q7L014 1-1031)
chain: B4 chain
binding [3]: no binding

More lines, now with the values ahead:

binding [1]: no binding | binding [2]: no binding
Molecule: SON (from UniProt P18583 1-2426)

binding [1]: binds
B1: DHX8 fused to the AP or the EX fragment of APEX2 (protein, UniProt Q14562 1-1220)
chain: MAVAVAMAGALIGSEPGPAEELAKLEYLSLVSKVCTELDNHLGINDKDLAEFVISLAEKNTTFDTFKASLVKNGAEFTDSLISNLLRLIQTMRPPAKPSTSKDPVVKPKTEKEKLKELFPVLCQPDNPSVRTMLDEDDVKVAVDVLKELEALMPSAAGQEKQRDAEHRDRTKKKKRSRSRDRNRDRDRDRERNRDRDHKRRHRSRSRSRSRTRERNKVKSRYRSRSRSQSPPKDRKDRDKYGERNLDRWRDKHVDRPPPEEPTIGDIYNGKVTSIMQFGCFVQLEGLRKRWEGLVHISELRREGRVANVADVVSKGQRVKVKVLSFTGTKTSLSMKDVDQETGEDLNPNRRRNLVGETNEETSMRNPDRPTHLSLVSAPEVEDDSLERKRLTRISDPEKWEIKQMIAANVLSKEEFPDFDEETGILPKVDDEEDEDLEIELVEEEPPFLRGHTKQSMDMSPIKIVKNPDGSLSQAAMMQSALAKERRELKQAQREAEMDSIPMGLNKHWVDPLPDAEGRQIAANMRGIGMMPNDIPEWKKHAFGGNKASYGKKTQMSILEQRESLPIYKLKEQLVQAVHDNQILIVIGETGSGKTTQITQYLAEAGYTSRGKIGCTQPRRVAAMSVAKRVSEEFGCCLGQEVGYTIRFEDCTSPETVIKYMTDGMLLRECLIDPDLTQYAIIMLDEAHERTIHTDVLFGLLKKTVQKRQDMKLIVTSATLDAVKFSQYFYEAPIFTIPGRTYPVEILYTKEPETDYLDASLITVMQIHLTEPPGDILVFLTGQEEIDTACEILYERMKSLGPDVPELIILPVYSALPSEMQTRIFDPAPPGSRKVVIATNIAETSLTIDGIYYVVDPGFVKQKVYNSKTGIDQLVVTPISQAQAKQRAGRAGRTGPGKCYRLYTERAYRDEMLTTNVPEIQRTNLASTVLSLKAMGINDLLSFDFMDAPPMETLITAMEQLYTLGALDDEGLLTRLGRRMAEFPLEPMLCKMLIMSVHLGCSEEMLTIVSMLSVQNVFYRPKDKQALADQKKAKFHQTEGDHLTLLAVYNSWKNNKFSNPWCYENFIQARSLRRAQDIRKQMLGIMDRHKLDVVSCGKSTVRVQKAICSGFFRNAAKKDPQEGYRTLIDQQVVYIHPSSALFNRQPEWVVYHELVLTTKEYMREVTTIDPRWLVEFAPAFFKVSDPTKLSKQKKQQRLEPLYNRYEEPNAWRISRAFRRR

binding [1]: binds
B2: DHX16 fused to the AP or the EX fragment of APEX2 (protein, UniProt O60231 1-1041)
chain: MATPAGLERWVQDELHSVLGLSERHVAQFLIGTAQRCTSAEEFVQRLRDTDTLDLSGPARDFALRLWNKVPRKAVVEKPARAAEREARALLEKNRSYRLLEDSEESSEETVSRAGSSLQKKRKKRKHLRKKREEEEEEEASEKGKKKTGGSKQQTEKPESEDEWERTERERLQDLEERDAFAERVRQRDKDRTRNVLERSDKKAYEEAQKRLKMAEEDRKAMVPELRKKSRREYLAKREREKLEDLEAELADEEFLFGDVELSRHERQELKYKRRVRDLAREYRAAGEQEKLEATNRYHMPKETRGQPARAVDLVEEESGAPGEEQRRWEEARLGAASLKFGARDAASQEPKYQLVLEEEETIEFVRATQLQGDEEPSAPPTSTQAQQKESIQAVRRSLPVFPFREELLAAIANHQVLIIEGETGSGKTTQIPQYLFEEGYTNKGMKIACTQPRRVAAMSVAARVAREMGVKLGNEVGYSIRFEDCTSERTVLRYMTDGMLLREFLSEPDLASYSVVMVDEAHERTLHTDILFGLIKDVARFRPELKVLVASATMDTARFSTFFDDAPVFRIPGRRFPVDIFYTKAPEADYLEACVVSVLQIHVTQPPGDILVFLTGQEEIEAACEMLQDRCRRLGSKIRELLVLPIYANLPSDMQARIFQPTPPGARKVVVATNIAETSLTIEGIIYVLDPGFCKQKSYNPRTGMESLTVTPCSKASANQRAGRAGRVAAGKCFRLYTAWAYQHELEETTVPEIQRTSLGNVVLLLKSLGIHDLMHFDFLDPPPYETLLLALEQLYALGALNHLGELTTSGRKMAELPVDPMLSKMILASEKYSCSEEILTVAAMLSVNNSIFYRPKDKVVHADNARVNFFLPGGDHLVLLNVYTQWAESGYSSQWCYENFVQFRSMRRARDVREQLEGLLERVEVGLSSCQGDYIRVRKAITAGYFYHTARLTRSGYRTVKQQQTVFIHPNSSLFEQQPRWLLYHELVLTTKEFMRQVLEIESSWLLEVAPHYYKAKELEDPHAKKMPKKIGKTREELG

binding [1]: binds
B3: DHX38 fused to the AP or the EX fragment of APEX2 (protein, UniProt Q92620 1-1227)
chain: MGDTSEDASIHRLEGTDLDCQVGGLICKSKSAASEQHVFKAPAPRPSLLGLDLLASLKRREREEKDDGEDKKKSKVSSYKDWEESKDDQKDAEEEGGDQAGQNIRKDRHYRSARVETPSHPGGVSEEFWERSRQRERERREHGVYASSKEEKDWKKEKSRDRDYDRKRDRDERDRSRHSSRSERDGGSERSSRRNEPESPRHRPKDAATPSRSTWEEEDSGYGSSRRSQWESPSPTPSYRDSERSHRLSTRDRDRSVRGKYSDDTPLPTPSYKYNEWADDRRHLGSTPRLSRGRGRREEGEEGISFDTEEERQQWEDDQRQADRDWYMMDEGYDEFHNPLAYSSEDYVRRREQHLHKQKQKRISAQRRQINEDNERWETNRMLTSGVVHRLEVDEDFEEDNAAKVHLMVHNLVPPFLDGRIVFTKQPEPVIPVKDATSDLAIIARKGSQTVRKHREQKERKKAQHKHWELAGTKLGDIMGVKKEEEPDKAVTEDGKVDYRTEQKFADHMKRKSEASSEFAKKKSILEQRQYLPIFAVQQELLTIIRDNSIVIVVGETGSGKTTQLTQYLHEDGYTDYGMIGCTQPRRVAAMSVAKRVSEEMGGNLGEEVGYAIRFEDCTSENTLIKYMTDGILLRESLREADLDHYSAIIMDEAHERSLNTDVLFGLLREVVARRSDLKLIVTSATMDAEKFAAFFGNVPIFHIPGRTFPVDILFSKTPQEDYVEAAVKQSLQVHLSGAPGDILIFMPGQEDIEVTSDQIVEHLEELENAPALAVLPIYSQLPSDLQAKIFQKAPDGVRKCIVATNIAETSLTVDGIMFVIDSGYCKLKVFNPRIGMDALQIYPISQANANQRSGRAGRTGPGQCFRLYTQSAYKNELLTTTVPEIQRTNLANVVLLLKSLGVQDLLQFHFMDPPPEDNMLNSMYQLWILGALDNTGGLTSTGRLMVEFPLDPALSKMLIVSCDMGCSSEILLIVSMLSVPAIFYRPKGREEESDQIREKFAVPESDHLTYLNVYLQWKNNNYSTIWCNDHFIHAKAMRKVREVRAQLKDIMVQQRMSLASCGTDWDIVRKCICAAYFHQAAKLKGIGEYVNIRTGMPCHLHPTSSLFGMGYTPDYIVYHELVMTTKEYMQCVTAVDGEWLAELGPMFYSVKQAGKSRQENRRRAKEEASAMEEEMALAEEQLRARRQEQEKRSPLGSVRSTKIYTPGRKEQGEPMTPRRTPARFGL

From publication PMC12757297
